This passage reports binding results from paper PMC10724065.

No constants are given. Whether binding was seen depends on the method and setting. Binding calls can cover weak binding; strength is not graded here. Tags and fused reporters may be left off the sequences shown.

The target in test [1] is T1, His-tagged GAI (Arabidopsis thaliana) (UniProt Q9LQT8).
T1 sequence: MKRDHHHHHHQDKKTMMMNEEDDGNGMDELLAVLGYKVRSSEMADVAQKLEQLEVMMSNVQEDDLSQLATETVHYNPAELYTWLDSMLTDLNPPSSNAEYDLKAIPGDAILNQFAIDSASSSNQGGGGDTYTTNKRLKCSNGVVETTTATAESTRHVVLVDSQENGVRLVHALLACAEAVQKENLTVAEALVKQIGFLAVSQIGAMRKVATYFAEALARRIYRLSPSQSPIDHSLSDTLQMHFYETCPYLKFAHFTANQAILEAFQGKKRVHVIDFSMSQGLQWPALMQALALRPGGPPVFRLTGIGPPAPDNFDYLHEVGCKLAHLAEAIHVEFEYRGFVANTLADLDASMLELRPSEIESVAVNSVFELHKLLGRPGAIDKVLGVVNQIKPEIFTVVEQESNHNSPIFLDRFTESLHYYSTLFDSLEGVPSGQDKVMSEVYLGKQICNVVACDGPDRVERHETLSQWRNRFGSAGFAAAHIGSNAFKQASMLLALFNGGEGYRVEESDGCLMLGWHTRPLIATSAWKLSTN
As to the kind of experiment: pull-down; 5 μg His-GAI/gai held on Ni-NTA agarose, 5 μg MBP-SLY1/sly1 added, 1 h at 4 °C, five washes, immunoblot with anti-His and anti-MBP; both purified. For orientation: A western blot detects proteins with antibodies after separation by electrophoresis.

Test [2] deals with T1, His-tagged GAI (Arabidopsis thaliana). As to the kind of experiment: pull-down; 5 μg His-GAI held on Ni-NTA agarose, 5 μg MBP-SLY1/sly1 added with an equal amount of GST-GID1C and 0.1 mM GA3, 1 h at 4 °C, immunoblot with anti-His, anti-MBP and anti-GST; both purified.
The target of test [3] is T2, Oryza sativa GID2 (yeast bait fusion) (Oryza sativa) (UniProt Q7XAK4).
T2 sequence: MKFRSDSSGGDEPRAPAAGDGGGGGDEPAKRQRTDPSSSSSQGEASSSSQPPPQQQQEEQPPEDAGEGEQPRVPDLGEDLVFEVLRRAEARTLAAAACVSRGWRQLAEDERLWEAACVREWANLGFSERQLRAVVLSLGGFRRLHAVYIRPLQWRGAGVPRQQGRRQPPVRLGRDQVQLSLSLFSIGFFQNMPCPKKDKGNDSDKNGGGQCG
Description: two-hybrid; SLY1/GID2 baits (pGBKT7) and DELLA preys (pGADT7); spotted on SD/-LWAH/X, strain AH109, 3-5 d at 30 °C; strengths quantified as β-galactosidase units with CPRG in liquid culture, strain Y187 (ND if OD578 <0.01 after 3 h).

In the case of “MBP-tagged MpSLY1 (Marchantia polymorpha)”, the binding entry in test [1] and in test [2] was “binds” in each case. Turning to “MBP-tagged SmSLY1 (Selaginella moellendorffii)”, the binding entry in test [1] and in test [2] was “binds” in each case. Consider “Selaginella moellendorffii SmDELLA2 (yeast prey fusion)”, for which the binding entry in test [3] is reported as “no binding”. Still for that read-out and setting: the result for “Marchantia polymorpha MpDELLA (yeast prey fusion)” reads “binds weakly”; that for “Selaginella moellendorffii SmDELLA1 (yeast prey fusion)”, “no binding”.
